PubChem BioAssay AID1159578 | Peter MacCallum Cancer Centre, 2015
The whole screen tested about 18,000 reagents; below is a part drawn at random. About 1,030 of all reagents (5.7%) count as active. 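Inactive calls also include pools with fewer than 3300 nuclei, whose migration was not assessed.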 Raw values vary from plate to plate and are shown uncorrected. Unmarked entries are inactive.

Purpose: 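Knock-downs that alter how fast lymphatic endothelial cells migrate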 (primary screen)
Cell system: human lymphatic endothelial cells
Knock-down reagent: siRNA pool against human genes, 40 nM
Time to read-out: 48 h after transfection
Measured: 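Cells stained with dye and imaged after a scratch; covered wound area and nuclei counted, duplicates averaged, migration set against mock wells and turned into a robust z-score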
Direction: migration robust z-score: higher = faster migration into the scratch; migration relative to mock: higher = more scratch area covered than mock; nuclei per well: higher = more cells in the well
Rule for the call: 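Pools averaging fewer than 3300 nuclei are never called; remaining pools count as changed when migration robust z lies outside -2 to 2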
Meaning of the calls: active = migration changed; inactive = no migration change, or too few cells

gene | migration robust z-score | migration class with cell-count check | migration relative to mock | nuclei per well, duplicate mean
SLC7A10 (GeneID 56301) | -0.75 | migration z between -2 and 2; enough cells | 0.66 | 5604
MFAP2 (GeneID 4237) | -0.17 | migration z between -2 and 2; enough cells | 0.84 | 8348
NECAP2 (GeneID 55707) | 0.9 | migration z between -2 and 2; enough cells | 1.12 | 4287
BOLA2B (GeneID 654483) | 0.43 | migration z between -2 and 2; enough cells | 1 | 5812
MAN2B2 (GeneID 23324) | 0.3 | migration z between -2 and 2; enough cells | 0.97 | 6444
CFD (GeneID 1675) | 0.42 | migration z between -2 and 2; enough cells | 0.88 | 6457
FAM131C (GeneID 348487) | 0.15 | migration z between -2 and 2; enough cells | 0.92 | 6214
WFDC3 (GeneID 140686) | -0.54 | migration z between -2 and 2; enough cells | 0.74 | 5816
TLK2 (GeneID 11011) | 0.36 | migration z between -2 and 2; enough cells | 0.88 | 4421
TOP2A (GeneID 7153) | 1.64 | migration z between -2 and 2; enough cells | 1.12 | 3702
LINC02694 (GeneID 400359) | 0.94 | migration z between -2 and 2; enough cells | 1.14 | 6698
CTSD (GeneID 1509) | 0 | migration z between -2 and 2; enough cells | 0.8 | 5202
NRGN (GeneID 4900) | 1.35 | migration z between -2 and 2; enough cells | 1.06 | 6052
NDUFV3 (GeneID 4731) | -0.74 | migration z between -2 and 2; enough cells | 0.69 | 5860
PIEZO1 (GeneID 9780) | 0.96 | migration z between -2 and 2; enough cells | 1.14 | 6353
RPL5 (GeneID 6125) | -1.33 | migration z between -2 and 2; enough cells | 0.54 | 4856
NCF2 (GeneID 4688) | 0.99 | migration z between -2 and 2; enough cells | 1 | 5518
GH1 (GeneID 2688) | -2.24 (active) | migration z below -2; enough cells | 0.3 | 5006
AGL (GeneID 178) | -2.54 | under 3300 nuclei; migration not judged | 0.32 | 3070
BCL7A (GeneID 605) | -0.16 | migration z between -2 and 2; enough cells | 0.84 | 5251
MYOC (GeneID 4653) | 1.08 | migration z between -2 and 2; enough cells | 1.17 | 5474
EHMT1 (GeneID 79813) | -0.32 | migration z between -2 and 2; enough cells | 0.74 | 5800
FN3K (GeneID 64122) | -1.09 | migration z between -2 and 2; enough cells | 0.6 | 4709
CLTA (GeneID 1211) | 0.6 | migration z between -2 and 2; enough cells | 1.04 | 4332
MEP1B (GeneID 4225) | -0.29 | migration z between -2 and 2; enough cells | 0.75 | 5550
TCN2 (GeneID 6948) | 0.99 | migration z between -2 and 2; enough cells | 1 | 6084
XAGE2 (GeneID 9502) | -0.55 | migration z between -2 and 2; enough cells | 0.74 | 6653
CARMIL3 (GeneID 90668) | -0.26 | migration z between -2 and 2; enough cells | 0.82 | 6678
GCAT (GeneID 23464) | -0.68 | migration z between -2 and 2; enough cells | 0.68 | 4220
RTBDN (GeneID 83546) | -0.08 | migration z between -2 and 2; enough cells | 0.86 | 5287
REN (GeneID 5972) | 0.05 | migration z between -2 and 2; enough cells | 0.82 | 5702
BEST3 (GeneID 144453) | 0.29 | migration z between -2 and 2; enough cells | 0.86 | 5890
POU1F1 (GeneID 5449) | 0.52 | migration z between -2 and 2; enough cells | 0.9 | 5485
DCDC2 (GeneID 51473) | 0.88 | migration z between -2 and 2; enough cells | 1.12 | 5820
NFKBID (GeneID 84807) | 0.17 | migration z between -2 and 2; enough cells | 0.93 | 5340
MYLIP (GeneID 29116) | -0.28 | migration z between -2 and 2; enough cells | 0.75 | 6493
TMEM214 (GeneID 54867) | -0.52 | migration z between -2 and 2; enough cells | 0.75 | 6004
ATAD3C (GeneID 219293) | -0.71 | migration z between -2 and 2; enough cells | 0.7 | 6579
PAPPA2 (GeneID 60676) | 0.42 | migration z between -2 and 2; enough cells | 0.88 | 5730

5 entries from above, ordered by “migration relative to mock”, high to low:
gene | migration robust z-score | migration class with cell-count check | migration relative to mock | nuclei per well, duplicate mean
CLTA (GeneID 1211) | 0.6 | migration z between -2 and 2; enough cells | 1.04 | 4332
TCN2 (GeneID 6948) | 0.99 | migration z between -2 and 2; enough cells | 1 | 6084
MEP1B (GeneID 4225) | -0.29 | migration z between -2 and 2; enough cells | 0.75 | 5550
XAGE2 (GeneID 9502) | -0.55 | migration z between -2 and 2; enough cells | 0.74 | 6653
FN3K (GeneID 64122) | -1.09 | migration z between -2 and 2; enough cells | 0.6 | 4709
